Reference: patent US20230279233A1, “ATROROSINS AS FOOD COLORS” (Chromologics ApS, priority 2020, published 2023)

Experiment: Coloring of hard and soft candy, CIEL*a*b*

## CCCCCCCC(=O)C1=C2C=C3C=C(/C=C\C(=O)O)N([C@@H](CCC(=O)O)C(=O)O)C=C3C(=O)C2(C)OC1=O (stereo partly drawn) [Atrorosin-E]
Hard candy 1, 43.75 PPM
  A (CIEL*a*b* red and green a*): 39.83
  B (CIEL*a*b* yellow and blue b*): 31.99
  L (CIEL*a*b* lightness L*): 56.32
Hard candy 2, 87.5 PPM
  A (CIEL*a*b* red and green a*): 51.19
  B (CIEL*a*b* yellow and blue b*): 34.42
  L (CIEL*a*b* lightness L*): 39.82
Soft candy 1, 8.75 PPM
  A (CIEL*a*b* red and green a*): 21.22
  B (CIEL*a*b* yellow and blue b*): 6.14
  L (CIEL*a*b* lightness L*): 51.88
Soft candy 2, 87.5 PPM
  A (CIEL*a*b* red and green a*): 15.92
  B (CIEL*a*b* yellow and blue b*): 4.69
  L (CIEL*a*b* lightness L*): 25.95
